Measurements reported in the supplement of paper PMC10849652.
The other results are listed elsewhere or left out.

Chains of the proteins cited; added tags and fusions are not shown. Lines headed by an entry give the natural chain unless they say otherwise; changes in a name come on top.
UniProt Q8IUC4: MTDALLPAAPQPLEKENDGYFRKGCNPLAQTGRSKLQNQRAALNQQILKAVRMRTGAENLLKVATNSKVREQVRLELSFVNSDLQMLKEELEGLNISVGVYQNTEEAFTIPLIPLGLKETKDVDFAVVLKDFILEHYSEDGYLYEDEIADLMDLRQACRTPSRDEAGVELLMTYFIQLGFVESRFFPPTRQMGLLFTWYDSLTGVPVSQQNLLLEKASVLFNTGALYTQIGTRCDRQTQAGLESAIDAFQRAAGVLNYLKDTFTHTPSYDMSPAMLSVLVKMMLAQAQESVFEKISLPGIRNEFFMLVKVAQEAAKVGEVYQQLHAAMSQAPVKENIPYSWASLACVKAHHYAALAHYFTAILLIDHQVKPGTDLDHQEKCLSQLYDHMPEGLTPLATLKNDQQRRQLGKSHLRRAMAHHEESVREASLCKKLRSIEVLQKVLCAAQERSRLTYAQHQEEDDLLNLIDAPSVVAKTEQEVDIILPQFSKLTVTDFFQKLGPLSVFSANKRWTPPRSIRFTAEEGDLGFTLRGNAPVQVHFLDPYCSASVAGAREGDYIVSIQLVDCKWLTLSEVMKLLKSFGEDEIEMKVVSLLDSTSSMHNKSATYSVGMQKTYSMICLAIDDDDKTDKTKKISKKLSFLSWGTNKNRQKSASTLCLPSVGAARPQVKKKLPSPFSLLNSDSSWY
UniProt P78317: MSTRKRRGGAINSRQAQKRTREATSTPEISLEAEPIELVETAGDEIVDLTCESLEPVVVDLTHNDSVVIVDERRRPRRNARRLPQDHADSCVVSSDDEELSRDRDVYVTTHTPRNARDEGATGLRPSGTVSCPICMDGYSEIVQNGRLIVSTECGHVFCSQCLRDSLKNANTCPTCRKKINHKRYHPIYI
UniProt Q96G75, whole entry, looked up: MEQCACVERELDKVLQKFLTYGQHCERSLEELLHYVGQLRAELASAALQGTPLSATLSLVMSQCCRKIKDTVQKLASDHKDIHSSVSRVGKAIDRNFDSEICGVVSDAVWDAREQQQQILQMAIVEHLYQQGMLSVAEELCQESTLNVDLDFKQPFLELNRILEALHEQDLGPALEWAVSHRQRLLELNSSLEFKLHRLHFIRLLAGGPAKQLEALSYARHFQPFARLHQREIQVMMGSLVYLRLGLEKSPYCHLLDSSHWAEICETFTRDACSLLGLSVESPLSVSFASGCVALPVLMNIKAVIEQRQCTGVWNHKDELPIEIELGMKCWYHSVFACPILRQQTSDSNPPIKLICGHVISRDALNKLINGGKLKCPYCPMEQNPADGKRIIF
UniProt Q9Y4L5, whole entry, looked up: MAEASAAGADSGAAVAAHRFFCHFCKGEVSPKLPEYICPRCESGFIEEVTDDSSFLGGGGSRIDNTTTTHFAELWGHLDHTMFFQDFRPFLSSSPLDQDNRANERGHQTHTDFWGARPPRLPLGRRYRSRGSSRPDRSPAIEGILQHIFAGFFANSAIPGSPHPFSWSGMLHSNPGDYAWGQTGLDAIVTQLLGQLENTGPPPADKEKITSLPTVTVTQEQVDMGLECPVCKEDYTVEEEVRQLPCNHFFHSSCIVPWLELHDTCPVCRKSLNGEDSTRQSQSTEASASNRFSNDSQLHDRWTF
UniProt Q8WU17: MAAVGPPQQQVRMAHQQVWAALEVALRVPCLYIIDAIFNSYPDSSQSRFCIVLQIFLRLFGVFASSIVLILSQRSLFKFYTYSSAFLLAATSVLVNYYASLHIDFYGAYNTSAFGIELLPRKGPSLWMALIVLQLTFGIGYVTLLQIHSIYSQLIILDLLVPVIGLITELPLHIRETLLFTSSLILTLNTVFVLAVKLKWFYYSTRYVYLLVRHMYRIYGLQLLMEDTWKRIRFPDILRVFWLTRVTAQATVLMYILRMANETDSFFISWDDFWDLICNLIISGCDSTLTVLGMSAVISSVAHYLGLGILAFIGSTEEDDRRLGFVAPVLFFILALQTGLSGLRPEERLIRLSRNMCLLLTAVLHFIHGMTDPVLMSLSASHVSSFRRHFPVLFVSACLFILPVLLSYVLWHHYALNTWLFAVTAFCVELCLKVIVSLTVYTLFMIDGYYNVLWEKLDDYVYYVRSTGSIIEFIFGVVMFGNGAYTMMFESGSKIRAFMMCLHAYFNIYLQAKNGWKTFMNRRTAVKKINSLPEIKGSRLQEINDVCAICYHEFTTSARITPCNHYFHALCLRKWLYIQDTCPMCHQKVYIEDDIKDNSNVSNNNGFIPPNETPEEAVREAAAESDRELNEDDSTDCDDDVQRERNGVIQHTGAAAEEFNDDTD
UniProt Q96GF1: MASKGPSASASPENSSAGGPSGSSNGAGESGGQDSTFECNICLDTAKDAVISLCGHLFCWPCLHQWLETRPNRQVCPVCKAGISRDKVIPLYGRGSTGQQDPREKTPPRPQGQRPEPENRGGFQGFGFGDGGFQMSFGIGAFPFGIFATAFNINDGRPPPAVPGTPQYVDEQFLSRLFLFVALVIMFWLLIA
UniProt Q969X0: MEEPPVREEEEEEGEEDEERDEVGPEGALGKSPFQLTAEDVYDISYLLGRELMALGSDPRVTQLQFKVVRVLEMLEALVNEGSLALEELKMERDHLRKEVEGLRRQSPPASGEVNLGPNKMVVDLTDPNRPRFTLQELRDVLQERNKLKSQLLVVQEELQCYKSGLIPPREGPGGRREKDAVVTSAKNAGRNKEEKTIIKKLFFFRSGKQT
UniProt Q9H9Y2: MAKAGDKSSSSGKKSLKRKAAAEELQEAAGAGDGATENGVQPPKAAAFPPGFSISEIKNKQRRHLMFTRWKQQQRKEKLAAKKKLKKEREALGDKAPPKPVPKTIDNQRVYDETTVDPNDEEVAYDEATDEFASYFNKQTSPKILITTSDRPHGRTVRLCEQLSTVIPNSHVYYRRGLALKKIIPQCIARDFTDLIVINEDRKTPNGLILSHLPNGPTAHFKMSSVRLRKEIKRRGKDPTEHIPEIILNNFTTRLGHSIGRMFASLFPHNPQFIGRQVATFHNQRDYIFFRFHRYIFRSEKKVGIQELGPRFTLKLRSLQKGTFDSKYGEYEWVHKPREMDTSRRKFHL
UniProt Q86UA6: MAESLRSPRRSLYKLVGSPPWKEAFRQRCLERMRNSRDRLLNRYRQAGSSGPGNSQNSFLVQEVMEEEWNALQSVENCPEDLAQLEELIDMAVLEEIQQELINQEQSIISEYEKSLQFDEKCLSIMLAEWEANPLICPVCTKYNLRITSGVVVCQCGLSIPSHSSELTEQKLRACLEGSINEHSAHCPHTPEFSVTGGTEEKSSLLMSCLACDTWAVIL
UniProt Q9H4P4: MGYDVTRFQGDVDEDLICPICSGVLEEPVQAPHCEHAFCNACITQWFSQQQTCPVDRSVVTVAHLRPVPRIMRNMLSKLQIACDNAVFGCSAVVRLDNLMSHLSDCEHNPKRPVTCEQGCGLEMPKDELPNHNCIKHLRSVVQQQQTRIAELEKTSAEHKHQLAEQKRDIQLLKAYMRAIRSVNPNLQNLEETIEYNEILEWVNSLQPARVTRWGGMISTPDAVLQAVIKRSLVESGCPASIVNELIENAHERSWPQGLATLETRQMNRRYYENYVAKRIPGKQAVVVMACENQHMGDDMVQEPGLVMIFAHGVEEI
UniProt Q6ZS11: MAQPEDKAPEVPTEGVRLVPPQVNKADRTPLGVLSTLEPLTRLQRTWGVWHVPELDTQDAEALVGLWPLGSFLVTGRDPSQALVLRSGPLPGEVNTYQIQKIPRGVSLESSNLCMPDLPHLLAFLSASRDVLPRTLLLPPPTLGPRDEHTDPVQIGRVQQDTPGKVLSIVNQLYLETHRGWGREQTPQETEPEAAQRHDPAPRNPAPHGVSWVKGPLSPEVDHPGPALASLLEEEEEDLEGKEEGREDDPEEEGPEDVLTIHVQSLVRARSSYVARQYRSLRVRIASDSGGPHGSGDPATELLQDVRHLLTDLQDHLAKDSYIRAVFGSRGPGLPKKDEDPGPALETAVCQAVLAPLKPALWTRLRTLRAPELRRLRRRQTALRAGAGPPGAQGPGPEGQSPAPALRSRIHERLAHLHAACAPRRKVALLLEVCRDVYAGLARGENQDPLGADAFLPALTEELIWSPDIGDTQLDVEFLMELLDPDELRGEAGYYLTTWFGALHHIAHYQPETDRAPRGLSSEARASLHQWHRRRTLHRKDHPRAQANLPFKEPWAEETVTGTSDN
UniProt Q8WVD3: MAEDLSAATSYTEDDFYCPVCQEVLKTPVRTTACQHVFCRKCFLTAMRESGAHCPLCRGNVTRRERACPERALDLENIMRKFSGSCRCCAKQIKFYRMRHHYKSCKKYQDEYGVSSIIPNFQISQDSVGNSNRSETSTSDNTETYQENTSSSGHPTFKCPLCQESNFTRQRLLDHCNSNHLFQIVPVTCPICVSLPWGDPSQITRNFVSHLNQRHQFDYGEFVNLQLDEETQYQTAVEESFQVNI
UniProt Q5M7Z0: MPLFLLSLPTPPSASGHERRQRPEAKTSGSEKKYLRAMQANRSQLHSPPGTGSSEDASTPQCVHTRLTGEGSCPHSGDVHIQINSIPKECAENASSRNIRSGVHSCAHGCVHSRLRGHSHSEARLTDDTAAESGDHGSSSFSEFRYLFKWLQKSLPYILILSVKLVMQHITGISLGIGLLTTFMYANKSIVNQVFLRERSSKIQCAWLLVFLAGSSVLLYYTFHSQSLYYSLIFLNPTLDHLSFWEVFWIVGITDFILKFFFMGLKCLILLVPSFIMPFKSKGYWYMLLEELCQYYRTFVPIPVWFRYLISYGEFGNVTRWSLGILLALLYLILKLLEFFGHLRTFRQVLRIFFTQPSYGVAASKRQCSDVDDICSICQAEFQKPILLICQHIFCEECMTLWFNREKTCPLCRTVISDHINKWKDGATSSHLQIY

Assays:
Test in all cases: log2 fold change, soluble protein after heating vs DMSO (PISA); higher = thermal stabilisation; K562 lysate, 10 uM; active = over 0.2 and 3.5 SD of the protein, either way, in both replicates (recomputed)
erlotinib = compound: C#Cc1cccc(Nc2ncnc3cc(OCCOC)c(OCCOC)cc23)c1 [erlotinib]
In short: (§1)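 Dounce homogenisation of K562 pellets in PBS pH 7.4 with 1 mM MgCl2 produced a crude extract, used at 1 mg/mL protein. Exposure to 10 μM compound lasted 30 min, and aliquots were then heated for 3 min across 48°C-58°C, pooled and brought to 0.5% NP-40 at 4°C. The supernatant after 21,000xg for 90 min was quantified by TMTpro 16plex LC-MS/MS with channel sums equalised. Duplicate values are given as log-two fold change in thermal stability relative to solvent controls.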

[1] = compound: C1=CC(=CC=C1C2=NC3=C(N2)C=C(C=C3)C(=O)N)OC4=CC=C(C=C4)Cl
In short: as §1

[2] = compound: C1=CC=C(C=C1)C2=NC(=C(N2)C3=CC=NC=C3)C4=CC(=C(C=C4)Cl)O
In short: as §1

[3] = compound: C1CCN(C1)C(=O)NC2=CC=CC(=C2)NC3=NC=C(C(=N3)NCCC4=CN=CN4)Br
In short: as §1

[4] = compound: C1CN(CCC1(CC2=CC=C(C=C2)Cl)N)C3=NC=NC4=C3C=CN4
In short: as §1

IRAK-1-4 Inhibitor I = compound: C1COCCN1CCN2C3=CC=CC=C3N=C2NC(=O)C4=CC(=CC=C4)[N+](=O)[O-] [IRAK-1-4 Inhibitor I]
In short: as §1

[5] = compound: CC(=O)c1cnc2ccc(-c3cc(Cl)c(O)c(Cl)c3)nc2c1N[C@H]1CC[C@H](CN(C)C)CC1
In short: as §1

ralimetinib = compound: CC(C)(C)Cn1c(N)nc2ccc(-c3[nH]c(C(C)(C)C)nc3-c3ccc(F)cc3)nc21 [ralimetinib]
In short: as §1

[6] = compound: CC(C)(O)CC(=O)NCCn1ccc2ncnc(Nc3ccc(Oc4cccc(C(F)(F)F)c4)c(Cl)c3)c21
In short: as §1

[7] = compound: CC(C)C1=C2N=C(C=C(N2N=C1)NCC3=CC=CC=C3)NCCCCCCN
In short: as §1

[8] = compound: CC1=C(C(CC(=O)N1)C2=CC=C(C=C2)C(F)(F)F)C(=O)NC3=C(C=C4C(=C3)C=NN4)F
In short: as §1

[9] = compound: CC1=C(C=C(C=C1)NC(=O)C2=CC(=CC=C2)C(C)(C)C#N)NC3=CC4=C(C=C3)N=CN(C4=O)C
In short: as §1

[10] = compound: CC1=C(C=C(C=C1)NC(=O)C2=CC(=CC=C2)N(C)C)NC(=O)C3=CC=C(C=C3)O
In short: as §1

[11] = compound: CC1=CC=C(C=C1)SC2=C3C=C(SC3=CN=C2)C(=O)N
In short: as §1

[12] = compound: C/C(=N\NC(=O)C1=CC(=CC=C1)S(=O)(=O)N2CCOCC2)/C3=C(C=CC(=C3)Cl)O
In short: as §1

[13] = compound: C1=CC2=C(C=CC(=C2)/C=C\3/C(=O)NC(=NCC4=CC=CS4)S3)N=C1
In short: as §1

[14] = compound: C1=CC2=NC=CN=C2C=C1/C=C/3\C(=O)NC(=O)S3
In short: as §1

[15] = compound: C1=CC=C2C(=C1)C3=NNC4=CC=CC(=C43)C2=O
In short: as §1

ibrutinib = compound: C=CC(=O)N1CCC[C@@H](n2nc(-c3ccc(Oc4ccccc4)cc3)c3c(N)ncnc32)C1 [ibrutinib]
In short: as §1

[16] = compound: CC1=C(C2=C(C=C1)C(=O)C3=CC=CC=C3N2CCCN)C
In short: as §1

Measured: log2 fold change

RHPN2 (UniProt Q8IUC4)
inactive: erlotinib 0.004 | [1] -0.048 | [2] -0.039 | [3] -0.045 | [4] 0.067 | IRAK-1-4 Inhibitor I -0.098 | [5] 0.032 | ralimetinib 0.038 | [6] 0.185 | [7] 0.023 | [8] -0.051 | [9] 0.085 | [10] -0.292 | [11] 0.027

RNF4 (UniProt P78317)
inactive: [12] 0.046 | [13] 0.007 | [14] 0.019 | [2] -0.081 | [15] -0.04 | [3] -0.008 | [4] -0.143 | IRAK-1-4 Inhibitor I -0.14 | ibrutinib -0.073 | ralimetinib -0.004 | [6] -0.172 | [8] 0.059 | [9] 0.154 | [10] -0.068

RMND5B (UniProt Q96G75)
inactive: [12] -0.022 | [13] -0.251 | [15] -0.132

RNF115 (UniProt Q9Y4L5)
inactive: [12] -0.021 | [13] -0.015 | [15] -0.042 | [8] 0.139 | [9] 0.039

Two consecutive entries out of the list so far:
RNF4 (UniProt P78317)
inactive: [12] 0.046 | [13] 0.007 | [14] 0.019 | [2] -0.081 | [15] -0.04 | [3] -0.008 | [4] -0.143 | IRAK-1-4 Inhibitor I -0.14 | ibrutinib -0.073 | ralimetinib -0.004 | [6] -0.172 | [8] 0.059 | [9] 0.154 | [10] -0.068

RMND5B (UniProt Q96G75)
inactive: [12] -0.022 | [13] -0.251 | [15] -0.132

Further entries follow:

RNF139 (UniProt Q8WU17)
inactive: erlotinib 0.035 | [12] -0.047 | [1] -0.279 | [13] -0.028 | [15] 0.024 | [7] 0.275 | [9] 0.011

RPL15, A0A2R8Y738
inactive: erlotinib 0.072 | [1] -0.035 | [14] -0.181 | ibrutinib -0.103 | [5] 0.102 | [7] -0.052 | [8] 0 | [11] -0.169

RNF185 (UniProt Q96GF1)
inactive: erlotinib 0.063 | [1] 0.023 | [14] 0.003 | ibrutinib 0.157 | [5] 0.036 | [7] -0.026 | [8] 0.04 | [11] -0.007

ROS1 (UniProt P08922)
inactive: [12] 0.056 | [13] -0.088 | [14] -0.133 | [2] 0.029 | [15] -0.014 | [3] -0.095 | [4] 0.021 | IRAK-1-4 Inhibitor I 0.072 | ibrutinib 0.161 | [5] 0.029 | ralimetinib 0.112 | [6] -0.062 | [8] 0.045 | [16] 0.015 | [9] -0.049 | [10] 0.04 | [11] 0.002

RILPL2 (UniProt Q969X0)
inactive: erlotinib 0.006 | [1] -0.043 | [14] 0.05 | [2] -0.173 | IRAK-1-4 Inhibitor I -0.005 | ibrutinib 0.053 | [5] -0.012 | ralimetinib 0.026 | [6] 0.039 | [7] -0.111 | [8] 0.04 | [9] -0.085 | [10] 0.01 | [11] 0.073

RPF1 (UniProt Q9H9Y2)
inactive: [14] -0.258 | [2] 0.016 | IRAK-1-4 Inhibitor I 0.065 | ibrutinib 0.114 | [5] 0.053 | ralimetinib 0.083 | [6] -0.074 | [9] 0.044 | [10] 0.033 | [11] -0.103

RPAIN isoform 8 (UniProt Q86UA6)
inactive: [12] 0.03 | [13] 0.038 | [14] 0.064 | [15] -0.013 | [3] -0.045 | [4] 0.01 | ibrutinib 0.065

RNF41 (UniProt Q9H4P4)
inactive: erlotinib 0.055 | [1] 0.019 | [2] 0.059 | IRAK-1-4 Inhibitor I -0.317 | ralimetinib -0.091 | [6] -0.066 | [7] -0.158 | [8] -0.103 | [16] 0.103 | [9] -0.023 | [10] -0.032

RINL (UniProt Q6ZS11)
inactive: erlotinib 0.014 | [1] 0.013 | [14] 0.122 | [2] 0.077 | [3] -0.302 | [4] 0.195 | IRAK-1-4 Inhibitor I 0.035 | ibrutinib -0.041 | [5] 0.074 | ralimetinib 0.094 | [6] -0.063 | [7] -0.052 | [8] -0.057 | [16] 0.05 | [10] 0.017 | [11] 0.021

RPL10, A0A087WV22
inactive: erlotinib -0.294 | [1] -0.319 | [14] -0.357 | [2] -0.05 | IRAK-1-4 Inhibitor I -0.052 | ibrutinib 0.982 | ralimetinib 0.049 | [6] -0.015 | [7] 0.691 | [16] 0.276 | [9] -0.187 | [10] 0.029

RNF138 (UniProt Q8WVD3)
inactive: [12] -0.011 | [13] -0.046 | [14] 0.013 | [2] 0.023 | [15] 0.021 | [3] 0.067 | [4] -0.058 | IRAK-1-4 Inhibitor I 0.025 | ibrutinib -0.016 | ralimetinib -0.008 | [6] 0.059 | [8] 0.007 | [16] 0.036 | [9] -0.031 | [10] -0.002

RNFT1 (UniProt Q5M7Z0)
inactive: erlotinib -0.062 | [1] -0.003 | [2] -0.106 | [3] 0.059 | [4] 0.042 | IRAK-1-4 Inhibitor I -0.001 | ralimetinib 0.001 | [6] -0.01 | [7] -0.099 | [8] -0.058 | [16] -0.141 | [10] -0.02
